From the supplement of paper PMC4635364
Counter-ions that a name gives are not always drawn. The list shows a part of the results. This data set is noisy: repeats of one test often differ as much as different tests do.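 Human fetal ventral-midbrain neural progenitor line ReNCell VM, differentiated without mitogens. Images stained for doublecortin (early neurons) or tyrosine hydroxylase (dopaminergic neurons) were scored by blinded raters against untreated wells (0 = no change). Repeats and both raters were averaged, and compounds averaging 2 or higher were picked as hits for retesting.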

Key:
[1] = test system: ReNCell VM; assay: neuronal differentiation score (DCX+ cell fraction vs untreated, manual image score) (score (-3 to 3)); higher = more neuronal differentiation; details: 2 uM, 2 weeks
[2] = test system: ReNCell VM; assay: dopaminergic neuron differentiation score (TH+ cell fraction vs untreated, manual image score) (score (0 to 3)); higher = more TH+ dopaminergic neuron differentiation; details: 2 uM, 4 weeks, BDNF 10 ng/ml + GDNF 10 ng/ml

Structure (SMILES): NC(=O)CI [Iodoacetamide]
- neuronal differentiation score ([1]; library: LOPAC): inactive: 0
- dopaminergic neuron differentiation score ([2]; library: LOPAC): inactive: 0

Structure (SMILES): COc1c2c(cc3c1OCO3)CC[N+](C)=C2 [Cotarnine chloride]
- neuronal differentiation score ([1]; library: Phytochemical): inactive: 0
- dopaminergic neuron differentiation score ([2]; library: Phytochemical): inactive: 0

Structure (SMILES): CC(=O)O[C@@H]1C[C@@]2(C)[C@H](c3ccoc3)C[C@H]3O[C@]32[C@]2(C)C(=O)C(O)=C3C(C)(C)C(=O)C=C[C@]3(C)[C@@H]12
- neuronal differentiation score ([1]; library: Spectrum): inactive: 0
- dopaminergic neuron differentiation score ([2]; library: Spectrum): inactive: 0

Structure (SMILES): C[C@]12CC[C@H]3[C@@H](CCC4=CC(=O)CC[C@@H]43)[C@@H]1CC[C@@H]2O [Nandrolone]
- neuronal differentiation score ([1]; library: Prestwick): inactive: 0
- dopaminergic neuron differentiation score ([2]; library: Prestwick): inactive: 0

Structure (SMILES): O=c1ccc2[nH]cc(C3=CCNCC3)c2[nH]1
- neuronal differentiation score ([1]; library: Tocriscreen): inactive: 0
- dopaminergic neuron differentiation score ([2]; library: Tocriscreen): inactive: 0

Structure (SMILES): CN(C)C(=O)Oc1cc(OC(=O)N(C)C)cc(C(O)CNC(C)(C)C)c1 (stereo not given) [Bambuterol hydrochloride]
- neuronal differentiation score ([1]; library: Prestwick): inactive: 0
- dopaminergic neuron differentiation score ([2]; library: Prestwick): inactive: 0

Structure (SMILES): CC(=O)Oc1c2c(c(CC=C(C)C)c3c1C(=O)C1=C[C@@H]4CC5C(C)(C)OC(C/C=C(\C)C(=O)O)(C4=O)[C@@]15O3)OC(C)(CCC=C(C)C)C=C2 (stereo not given in full)
- neuronal differentiation score ([1]; library: Spectrum): inactive: 0
- dopaminergic neuron differentiation score ([2]; library: Spectrum): inactive: 0

Structure (SMILES): CN(C)C(=O)Oc1ccc[n+](C)c1 [Pyridostigmine iodide]
- neuronal differentiation score ([1]; library: Prestwick): inactive: 0
- dopaminergic neuron differentiation score ([2]; library: Prestwick): inactive: 0

Structure (SMILES): O=c1ccc2ccc3occc3c2o1 [Angelicin]
- neuronal differentiation score ([1]; library: Phytochemical): inactive: 0
- dopaminergic neuron differentiation score ([2]; library: Phytochemical): inactive: 0

Structure (SMILES): N#C/C(=C\c1ccc(O)c(O)c1)C(N)=S [Tyrphostin 47]
- neuronal differentiation score ([1]; library: LOPAC): inactive: 0
- dopaminergic neuron differentiation score ([2]; library: LOPAC): inactive: 0

Structure (SMILES): CSC(=S)NCc1c[nH]c2ccccc12 [brassinin]
- neuronal differentiation score ([1]; library: Natural): inactive: 0
- dopaminergic neuron differentiation score ([2]; library: Natural): inactive: 0

Structure (SMILES): CCNCC(O)c1cccc(O)c1 (stereo not given) [Etilefrine hydrochloride]
- neuronal differentiation score ([1]; library: Prestwick): inactive: 0
- dopaminergic neuron differentiation score ([2]; library: Prestwick): inactive: 0

Structure (SMILES): CC1=CCCC2C1(C)CCC(C)C2(C)CC/C(C)=C/Cn1c[n+](C)c2c(N)ncnc21 (stereo not given) [AGELASINE (stereochemistry of diterpene unknown)]
- neuronal differentiation score ([1]; library: Spectrum): inactive: 0
- dopaminergic neuron differentiation score ([2]; library: Spectrum): inactive: 0

Structure (SMILES): CCCN(CCC)C1CCc2ccc(O)cc2C1 (stereo not drawn) [R-(+)-7-Hydroxy-DPAT hydrobromide]
- neuronal differentiation score ([1]; library: LOPAC): inactive: 0
- dopaminergic neuron differentiation score ([2]; library: LOPAC): inactive: 0

Structure (SMILES): CN1CCc2cc3c(cc2[C@H]1[C@@H]1OC(=O)c2c1ccc1c2OCO1)OCO3 [Bicuculline (+)]
- neuronal differentiation score ([1]; library: Phytochemical): inactive: 0
- dopaminergic neuron differentiation score ([2]; library: Phytochemical): inactive: 0

Structure (SMILES): CCC(C)C1O[C@]2(C=C[C@@H]1C)C[C@@H]1CC(C/C=C(\C)[C@@H](OC3C[C@H](OC)[C@@H](OC4C[C@H](OC)[C@@H](O)[C@H](C)O4)[C@H](C)O3)[C@@H](C)/C=C/C=C3\COC4[C@H](O)C(C)=CC(C(=O)O1)[C@]34O)O2 (stereo not given in full) [Avermectin B1a]
- neuronal differentiation score ([1]; library: Prestwick): inactive: 0
- dopaminergic neuron differentiation score ([2]; library: Prestwick): inactive: 1

Structure (SMILES): O=C1C[C@@H]2OCC=C3CN4CC[C@]56c7ccccc7N1[C@H]5[C@H]2[C@H]3C[C@H]46 [Strychnine]
- neuronal differentiation score ([1]; library: Phytochemical): inactive: 0
- dopaminergic neuron differentiation score ([2]; library: Phytochemical): inactive: 0

Structure (SMILES): CC[C@@H]1CN2CC[C@@H]1C[C@H]2[C@H](O)c1ccnc2ccc(O)cc12 [Hydrocupreine]
- neuronal differentiation score ([1]; library: Phytochemical): inactive: 0
- dopaminergic neuron differentiation score ([2]; library: Phytochemical): inactive: 0

Structure (SMILES): CN1[C@@H]2CC[C@H]1C[C@@H](OC(=O)c1cc(Cl)cc(Cl)c1)C2
- neuronal differentiation score ([1]; library: Tocriscreen): inactive: 0
- dopaminergic neuron differentiation score ([2]; library: Tocriscreen): inactive: 0

Structure (SMILES): O=C1C=CC(=O)c2c(O)cccc21
- neuronal differentiation score ([1]; library: Spectrum): inactive: 0
- dopaminergic neuron differentiation score ([2]; library: Spectrum): inactive: 0

Structure (SMILES): CC(C)=CC1C(C(=O)OCc2cccc(Oc3ccccc3)c2)C1(C)C (stereo not given)
- neuronal differentiation score ([1]; library: Spectrum): inactive: 0
- dopaminergic neuron differentiation score ([2]; library: Spectrum): inactive: 0

Structure (SMILES): COc1ccc2c(c1)/C(=C/c1cnc[nH]1)C(=O)N2
- neuronal differentiation score ([1]; library: LOPAC): inactive: 0
- dopaminergic neuron differentiation score ([2]; library: LOPAC): inactive: 0

Structure (SMILES): N#Cc1nn(-c2c(Cl)cc(C(F)(F)F)cc2Cl)c(N)c1[S+]([O-])C(F)(F)F (stereo not given)
- neuronal differentiation score ([1]; library: Spectrum): inactive: 0
- dopaminergic neuron differentiation score ([2]; library: Spectrum): inactive: 0

Structure (SMILES): COC1=CC(=O)O[C@@H](/C=C/c2ccccc2)C1 [Kawain]
- neuronal differentiation score ([1]; library: Phytochemical): inactive: 0
- dopaminergic neuron differentiation score ([2]; library: Phytochemical): inactive: 0

Structure (SMILES): COC1=CC=C2[C@H]3Cc4ccc(OC)c5c4[C@@]2(CCN3C)[C@H]1O5 [Thebaine HCl]
- neuronal differentiation score ([1]; library: Phytochemical): inactive: 0
- dopaminergic neuron differentiation score ([2]; library: Phytochemical): inactive: 0

Structure (SMILES): CCCN1CCC[C@@H]2Cc3nc(N)ncc3C[C@H]21 [Quinelorane dihydrochloride]
- neuronal differentiation score ([1]; library: LOPAC): inactive: 1
- dopaminergic neuron differentiation score ([2]; library: LOPAC): inactive: 0

Structure (SMILES): [N-]=[N+]=CC(=O)OC[C@H](N)C(=O)O
- neuronal differentiation score ([1]; library: Spectrum): inactive: 0
- dopaminergic neuron differentiation score ([2]; library: Spectrum): inactive: 0

Structure (SMILES): N=C(NCc1ccc(Cl)cc1)SCCCc1c[nH]cn1 [Clobenpropit dihydrobromide]
- neuronal differentiation score ([1]; library: Tocriscreen): inactive: 0
- dopaminergic neuron differentiation score ([2]; library: Tocriscreen): active: 3

Structure (SMILES): CS(=N)(=O)CC[C@H](N)C(=O)O (stereo partly drawn) [L-Methionine sulfoximine]
- neuronal differentiation score ([1]; library: LOPAC): inactive: 0
- dopaminergic neuron differentiation score ([2]; library: LOPAC): inactive: 0

Structure (SMILES): O=C1CC[C@@]2(O)[C@H]3Cc4ccc(O)c5c4[C@@]2(CCN3CC2CC2)[C@H]1O5 [Naltrexone hydrochloride]
- neuronal differentiation score ([1]; library: LOPAC): inactive: 0
- dopaminergic neuron differentiation score ([2]; library: LOPAC): inactive: 0
